From PubChem BioAssay record AID2060322 (NCATS, 2025).

By UniProt entry, the sequences of proteins in these tests, tags left out.
UniProt P04637, whole entry, target on record: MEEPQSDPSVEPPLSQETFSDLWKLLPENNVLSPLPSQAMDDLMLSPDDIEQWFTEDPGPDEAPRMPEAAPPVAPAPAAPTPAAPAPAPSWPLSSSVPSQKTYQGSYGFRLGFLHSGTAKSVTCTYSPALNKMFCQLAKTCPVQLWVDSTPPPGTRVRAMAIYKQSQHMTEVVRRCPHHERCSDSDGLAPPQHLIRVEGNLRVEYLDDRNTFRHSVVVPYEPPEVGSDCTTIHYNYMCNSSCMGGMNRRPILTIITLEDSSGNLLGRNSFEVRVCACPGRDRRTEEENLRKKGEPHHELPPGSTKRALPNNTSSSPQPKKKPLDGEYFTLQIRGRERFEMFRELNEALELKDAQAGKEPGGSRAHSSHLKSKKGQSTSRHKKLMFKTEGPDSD

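Curve-fitted potency for raising eGFP-delta133p53alpha fluorescence in NCI-H358 cells after a 24-hour treatment. The dilution series runs from about 7.7e-06 to 290 µM in 23 concentration columns. Potency, read at half-maximal effect from the fitted activation curve; lower values mean a more potent compound. Calls follow the dose-curve shape: a well-fitted activation curve with a large enough effect is active, and small, poorly fitted or top-dose-only effects are inconclusive.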

Values are in nM. Every entry below has the call inconclusive. Only part of the assay is shown, chiefly results filed as inconclusive. Potencies fitted to partial, single-point or poorly fitting curves are rough. Some entries filed as inconclusive have a full curve.

{"structure": "Nc1nc2c(ncn2COCCO)c(=O)[nH]1", "fitted potency (nM)": "8492", "remark": "activator, full curve"}
{"structure": "Cc1cc(-c2cnc(N)c3c(-c4ccc5scnc5c4)csc23)n(C)n1", "fitted potency (nM)": "30131", "remark": "activator, single point"}
{"structure": "CC(=O)OC[C@]12C[C@H](OC(=O)CC(C)C)C(C)=C[C@H]1O[C@@H]1[C@H](O)[C@@H](O)[C@@]2(C)[C@]12CO2", "fitted potency (nM)": "116.9", "remark": "activator, full curve, poor fit"}
{"structure": "O=C1Cc2cc(CCN3CCN(c4nsc5ccccc45)CC3)c(Cl)cc2N1", "fitted potency (nM)": "43239", "remark": "activator, single point"}
{"structure": "COc1cc2c(cc1OC)CN(CCc1ccc(NC(=O)c3cc(OC)c(OC)cc3NC(=O)c3cnc4ccccc4c3)cc1)CC2", "fitted potency (nM)": "27282", "remark": "activator, single point"}
{"structure": "COC1CC(O[C@H]2CC[C@]3(C)C4CC[C@]5(C)C(C6=CC(=O)OC6)=CCC56OC46CC[C@@H]3C2)OC(C)C1O[C@@H]1O[C@H](CO[C@@H]2O[C@H](CO)[C@@H](O)[C@H](O)[C@H]2O)[C@@H](O)[C@H](O)[C@H]1O", "stereo": "stereo partly shown", "fitted potency (nM)": "4535", "remark": "activator, single point"}
{"structure": "CCn1c(-c2nonc2N)nc2c(C#CCO)ncc(OCCCN)c21", "fitted potency (nM)": "37932", "remark": "activator, single point"}
{"structure": "CSc1ccc2c(c1)C(N1CCN(C)CC1)Cc1ccccc1S2", "stereo": "stereo not shown", "fitted potency (nM)": "21890", "remark": "activator, partial curve"}
{"structure": "CC(C)(O)C1CC=C(C(=O)OCC2OC(Oc3c(O)cc(C(=O)O)cc3O)C(O)C(O)C2O)CC1", "stereo": "stereo not shown", "fitted potency (nM)": "2332", "remark": "activator, single point"}
{"structure": "Cc1cc(SCc2sc(-c3ccc(C(F)(F)F)cc3)nc2C)ccc1OCC(=O)O", "fitted potency (nM)": "43239", "remark": "activator, single point"}
{"structure": "CCCCc1nc2cc(/C=C/C(=O)NO)ccc2n1CCN(CC)CC", "fitted potency (nM)": "21331", "remark": "activator, partial curve"}
{"structure": "CNC(=O)c1c(F)cccc1Nc1nc(Nc2cc3c(cc2OC)CCN3C(=O)CN(C)C)nc2[nH]ccc12", "fitted potency (nM)": "11995", "remark": "activator, partial curve"}
{"structure": "CC(C)c1ccc(NC(=O)c2cccs2)c(-c2nc3ccccc3[nH]c2=O)c1", "fitted potency (nM)": "3381", "remark": "activator, partial curve, poor fit"}
{"structure": "C[C@H]1CO[C@@H]2Cn3cc(C(=O)NCc4ccc(F)cc4F)c(=O)c(O)c3C(=O)N12", "fitted potency (nM)": "37932", "remark": "activator, single point"}
{"structure": "Cc1cc(C)c(/C=C2\\C(=O)Nc3ccccc32)[nH]1", "fitted potency (nM)": "37932", "remark": "activator, single point"}
{"structure": "Cc1cnc(Nc2ccc(CN3CCOCC3)cc2)nc1Nc1cccc(S(=O)(=O)NC(C)(C)C)c1", "fitted potency (nM)": "30131", "remark": "activator, single point"}
{"structure": "Cc1cc(CN2CCN(c3c(Br)cnc4nc(-c5ccc(N6CCN(C)CC6)cc5)[nH]c34)CC2)no1", "fitted potency (nM)": "27273", "remark": "activator, single point"}
{"structure": "COc1ccc(C(=O)/C(Cc2cc(OC)c(OC)c(OC)c2)=C(\\C(=O)O)c2ccc3c(c2)OCO3)cc1", "fitted potency (nM)": "33807", "remark": "activator, single point"}
{"structure": "c1cc(NCCc2c[nH]c3ccccc23)cc(Nc2ccncc2)c1", "fitted potency (nM)": "37932", "remark": "activator, single point"}

Some entries from above, unchanged:

structure,fitted potency (nM),remark
CCCCc1nc2cc(/C=C/C(=O)NO)ccc2n1CCN(CC)CC,21331,"activator, partial curve"
Cc1cc(C)c(/C=C2\C(=O)Nc3ccccc32)[nH]1,37932,"activator, single point"